Results taken from paper PMC10896730.
Results are given in words; binding and its absence hold for the method and conditions named. For some assays here: Binding seen in cells or lysates may run through a third protein. Some binding calls cover weakened binding; strength is not graded here.

What was measured:
[1] = biological target: T1, QH2–Cyt c reductase core protein 2 (UQCRC2), subunit of complex III (mouse (endogenous in skeletal muscle, heart, brain, C2C12 myoblasts and fibroblasts)) (UniProt Q9DB77); experiment: co-IP; UQCRC2 or COQ2 immunocaptured from isolated mitochondria of mouse Skm, heart and brain solubilized with 1% n-dodecyl-β-D-maltoside; 1–3 mg protein with 12 μg antibody on Protein G affinity gel, 4 °C overnight; western blot
T1 sequence: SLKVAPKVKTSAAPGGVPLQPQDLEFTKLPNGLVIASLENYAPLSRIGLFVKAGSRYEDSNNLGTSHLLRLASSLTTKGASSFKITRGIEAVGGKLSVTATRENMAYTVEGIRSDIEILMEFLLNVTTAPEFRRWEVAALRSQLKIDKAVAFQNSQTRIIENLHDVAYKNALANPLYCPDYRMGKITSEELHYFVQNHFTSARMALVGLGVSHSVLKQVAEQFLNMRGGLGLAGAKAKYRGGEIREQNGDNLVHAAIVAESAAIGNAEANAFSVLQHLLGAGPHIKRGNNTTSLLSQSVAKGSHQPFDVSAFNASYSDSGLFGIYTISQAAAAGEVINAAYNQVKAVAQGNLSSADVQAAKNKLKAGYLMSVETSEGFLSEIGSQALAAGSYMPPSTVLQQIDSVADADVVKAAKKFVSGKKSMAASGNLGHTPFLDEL

[2] = biological target: T2, COQ2 enzyme from the Q-biosynthesis pathway (mouse (endogenous in skeletal muscle, heart, C2C12 myoblasts and fibroblasts)) (UniProt Q66JT7); experiment: as above
T2 sequence: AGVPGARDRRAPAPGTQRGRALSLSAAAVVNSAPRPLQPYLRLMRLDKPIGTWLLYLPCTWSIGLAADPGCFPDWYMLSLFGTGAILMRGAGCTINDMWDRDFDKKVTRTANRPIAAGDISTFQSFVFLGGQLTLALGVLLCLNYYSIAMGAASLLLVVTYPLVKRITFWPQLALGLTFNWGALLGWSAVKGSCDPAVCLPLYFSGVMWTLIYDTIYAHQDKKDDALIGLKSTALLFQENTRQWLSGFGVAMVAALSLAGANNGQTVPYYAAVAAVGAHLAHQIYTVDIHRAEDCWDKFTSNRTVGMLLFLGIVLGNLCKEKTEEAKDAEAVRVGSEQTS

[3] = biological target: T1, QH2–Cyt c reductase core protein 2 (UQCRC2), subunit of complex III (mouse (endogenous in skeletal muscle, heart, brain, C2C12 myoblasts and fibroblasts)); experiment: native gel or EMSA; BN-PAGE of mitochondrial membrane proteins from wt mouse hearts and wt mouse fibroblasts cut into 26 bands, proteomics of each band (BN-DiS); codetection in band 13
[4] = biological target: T2, COQ2 enzyme from the Q-biosynthesis pathway (mouse (endogenous in skeletal muscle, heart, C2C12 myoblasts and fibroblasts)); experiment: as above
[5] = biological target: T1, QH2–Cyt c reductase core protein 2 (UQCRC2), subunit of complex III (mouse (endogenous in skeletal muscle, heart, brain, C2C12 myoblasts and fibroblasts)); experiment: native gel or EMSA; 1D BN-PAGE (digitonin-solubilized Skm mitochondrial membranes of wt mice, 3–12% Bis–Tris) followed by 2D SDS–PAGE and immunoblot; comigration
[6] = biological target: T2, COQ2 enzyme from the Q-biosynthesis pathway (mouse (endogenous in skeletal muscle, heart, C2C12 myoblasts and fibroblasts)); experiment: as above
[7] = biological target: T1, QH2–Cyt c reductase core protein 2 (UQCRC2), subunit of complex III (mouse (endogenous in skeletal muscle, heart, brain, C2C12 myoblasts and fibroblasts)); experiment: proximity ligation; Duolink In Situ PLA in C2C12 myoblasts (CRL and ETFDH-ko) grown on coverslips
[8] = biological target: T2, COQ2 enzyme from the Q-biosynthesis pathway (mouse (endogenous in skeletal muscle, heart, C2C12 myoblasts and fibroblasts)); experiment: as above

- binding [1]: binds
- binding [2]: binds
- binding [3]: binds
- binding [4]: binds
- binding [5]: binds
- binding [6]: binds
- binding [7]: binds
- binding [8]: binds
B1: electron-transfer flavoprotein dehydrogenase (ETFDH) (protein, UniProt Q921G7 33-616)
chain: SSTSAVPQITTHYTVHPREKDKRWEGVNMERFAEEADVVIVGAGPAGLSAAIRLKQLAAEQGKDIRVCLVEKAAQIGAHTLSGACLDPAAFKELFPDWKEKGAPLNTPVTEDRFAILTEKHRIPVPILPGLPMNNHGNYIVRLGHLVSWMGEQAEALGVEVYPGYAAAEVLYHEDGSVKGIATNDVGIQKDGAPKTTFERGLELHAKVTVFAEGCHGHLAKQLYKKFDLRASCDAQTYGIGLKELWIIDEKKWKPGRVDHTVGWPLDRHTYGGSFLYHLNEGEPLVAVGFVVGLDYQNPYLSPFREFQRWKHHPSIQPTLEGGKRIAYGARALNEGGLQSIPKLTFPGGLLIGCSPGFMNVPKIKGTHTAMKSGSLAAESIFKQLTSENLQSKTTGLHVTEYEDNLKQSWVWKELHAVRNIRPSCHGILGVYGGMIYTGIFYWILRGMEPWTLKHKGSDSDQLKPAKDCTPIEYPKPDGQISFDLLSSVALSGTNHEHDQPAHLTLKDDSIPVNRNLSIYDGPEQRFCPAGVYEFVPLEQGDGFRLQINAQNCVHCKTCDIKDPSQNINWVVPEGGGGPAYNGM
